Reference: US20250154171A1, “RAS INHIBITORS” (Revolution Medicines, Inc., priority 2023, published 2025)
Some entries share one result that the patent states for a list of compounds.

Chains of the proteins cited; added tags and fusions are not shown. Lines headed by an entry give the natural chain unless they say otherwise; changes in a name come on top. Residues count along the entry.
UniProt P01116, 1-188 isoform P01116-2 G12V: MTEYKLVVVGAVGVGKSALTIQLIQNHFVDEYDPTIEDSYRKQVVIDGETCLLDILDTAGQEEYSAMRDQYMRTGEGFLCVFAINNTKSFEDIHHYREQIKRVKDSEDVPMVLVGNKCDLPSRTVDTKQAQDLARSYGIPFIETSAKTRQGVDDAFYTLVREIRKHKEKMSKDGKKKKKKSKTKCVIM
UniProt P01116, 1-188 isoform P01116-2 G12A: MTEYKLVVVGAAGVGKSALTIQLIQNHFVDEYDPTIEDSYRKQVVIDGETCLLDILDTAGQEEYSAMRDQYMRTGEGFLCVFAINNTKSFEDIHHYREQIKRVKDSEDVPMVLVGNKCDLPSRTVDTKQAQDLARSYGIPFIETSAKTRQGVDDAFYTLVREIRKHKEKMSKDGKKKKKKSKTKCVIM
UniProt P62937, whole entry: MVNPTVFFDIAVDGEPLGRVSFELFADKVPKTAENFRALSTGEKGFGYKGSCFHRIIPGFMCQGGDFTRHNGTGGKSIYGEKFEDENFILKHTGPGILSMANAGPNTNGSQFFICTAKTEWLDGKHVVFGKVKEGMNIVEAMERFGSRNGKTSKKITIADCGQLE

Tests used:
K-RasG12V = K-RasG12V (Homo sapiens, UniProt P01116+P62937, G12V); test: Disruption of BRAF RBD interaction with K-Ras (TR-FRET / MOA assay), K-RasG12V; format: biochemical; conditions: TR-FRET with cyclophilin A and GST-BRAF RBD, read-out: IC50 with respect to K-RasG12V (disruption of BRAF RBD interaction)
K-RasG12A = K-RasG12A (Homo sapiens, UniProt P01116+P62937, G12A); test: Disruption of BRAF RBD interaction with K-Ras (TR-FRET / MOA assay), K-RasG12A; format: biochemical; conditions: TR-FRET with cyclophilin A and GST-BRAF RBD, read-out: IC50 with respect to K-RasG12A (disruption of BRAF RBD interaction)
Capan-1 (K-Ras G12V) = test: CellTiter-Glo cell viability assay, Capan-1; format: cell-based, human; conditions: 5-day treatment, Capan-1 and/or NCI-H2009 versus A375

| Structure (SMILES) | IC50 (K-RasG12V) [nM] | IC50 (K-RasG12A) [nM] | decrease in cell viability with respect to Capan-1 and/or NCI-H2009 versus wild-type KRAS (A375) (Capan-1 (K-Ras G12V)) |
| --- | --- | --- | --- |
| CO[C@@H](C)c1ncc(N2CCN(C)CC2)cc1-c1c2c3cc(ccc3n1[C@H]1C[C@@H](C#N)C1)-c1coc(n1)C[C@H](NC(=O)[C@H]1[C@H](C)[C@@H]1C)C(=O)N1CCC[C@H](N1)C(=O)OCC(C)(C)C2 (atropisomer, axis not shown) [Example A1143] | < 1000 | < 1000 | greater decrease in cell viability |
| CO[C@@H](C)c1ncccc1-c1c2c3cc(ccc3n1[C@H]1C[C@H](C#N)C1)-c1csc(n1)[C@@H](N1CC3(CCN3C)C1)[C@H](NC(=O)[C@H]1[C@H](C)[C@@H]1C)C(=O)N1CCC[C@H](N1)C(=O)OCC(C)(C)C2 (atropisomer, axis not shown) [Example A1145] | < 1000 | < 1000 | greater decrease in cell viability |
| CO[C@@H](C)c1ncccc1-c1c2c3cc(ccc3n1C1COC1)-c1csc(n1)[C@@H](N1CC3(CCN3C)C1)[C@H](NC(=O)[C@H]1[C@H](C)[C@@H]1C)C(=O)N1CCC[C@H](N1)C(=O)OCC(C)(C)C2 (atropisomer, axis not shown) [Example A1146] | < 1000 | < 1000 | greater decrease in cell viability |
| CO[C@@H](C)c1ncccc1-c1c2c3cc(ccc3n1CC(F)(F)F)-c1csc(n1)[C@@H](N1CC3(CCN3C)C1)[C@H](NC(=O)[C@H]1[C@H](C)[C@@H]1C)C(=O)N1CCC[C@H](N1)C(=O)OCC(C)(C)C2 (atropisomer, axis not shown) [Example A1147] | < 1000 | < 1000 | greater decrease in cell viability |
| CO[C@@H](C)c1ncccc1-c1c2c3cc(ccc3n1[C@H]1C[C@@H]3CN(C)C[C@@H]3C1)-c1csc(n1)[C@@H](N1CC3(CCN3C)C1)[C@H](NC(=O)[C@@H]1[C@@H](C)[C@H]1c1ccncn1)C(=O)N1CCC[C@H](N1)C(=O)OCC(C)(C)C2 (atropisomer, axis not shown) [Example A1148] | < 1000 | < 1000 | greater decrease in cell viability |
| CO[C@@H](C)c1ncccc1-c1c2c3cc(ccc3n1CCOC(C)C)-c1csc(n1)[C@@H](N1CC3(CCN3C)C1)[C@H](NC(=O)[C@@H]1[C@@H](C)[C@H]1c1ccncn1)C(=O)N1CCC[C@H](N1)C(=O)OCC(C)(C)C2 (atropisomer, axis not shown) [Example A1149] | < 1000 | < 1000 | greater decrease in cell viability |
| CO[C@@H](C)c1ncccc1-c1c2c3cc(ccc3n1C1CC3(COC3)C1)-c1csc(n1)[C@@H](N1CC3(CCN3C)C1)[C@H](NC(=O)[C@@H]1[C@@H](C)[C@H]1c1ccncn1)C(=O)N1CCC[C@H](N1)C(=O)OCC(C)(C)C2 (atropisomer, axis not shown) [Example A1150] | < 1000 | < 1000 | greater decrease in cell viability |
| CO[C@@H](C)c1ncccc1-c1c2c3cc(ccc3n1C1COC1)-c1csc(n1)[C@@H](N1CC3(CCN3C)C1)[C@H](NC(=O)[C@@H]1[C@@H](C)[C@H]1c1ccncn1)C(=O)N1CCC[C@H](N1)C(=O)OCC(C)(C)C2 (atropisomer, axis not shown) [Example A1151] | < 1000 | < 1000 | greater decrease in cell viability |
| CO[C@@H](C)c1ncccc1-c1c2c3cc(ccc3n1CC(F)(F)F)-c1csc(n1)[C@@H](N1CC3(CCN3C)C1)[C@H](NC(=O)[C@@H]1[C@@H](C)[C@H]1c1ccncn1)C(=O)N1CCC[C@H](N1)C(=O)OCC(C)(C)C2 (atropisomer, axis not shown) [Example A1152] | < 1000 | < 1000 | greater decrease in cell viability |
| CO[C@@H](C)c1ncccc1-c1c2c3cc(ccc3n1[C@H]1C[C@H](C#N)C1)-c1csc(n1)[C@@H](N1CC3(CCCN3)C1)[C@H](NC(=O)[C@H]1[C@H](C)[C@@H]1C)C(=O)N1CCC[C@H](N1)C(=O)OCC(C)(C)C2 (atropisomer, axis not shown) [Example A1154] | < 1000 | < 1000 | greater decrease in cell viability |
| CO[C@@H](C)c1ncc(N2CCN(C3CC3)CC2)cc1-c1c2c3cc(ccc3n1C1CN(C3CC3)C1)-c1coc(n1)[C@@H](N1CC3(CCCN3C)C1)[C@H](NC(=O)[C@@H]1[C@@H](C)[C@H]1c1ccncn1)C(=O)N1CCC[C@H](N1)C(=O)OCC(C)(C)C2 (atropisomer, axis not shown) [Example A1157] | < 1000 | < 1000 | greater decrease in cell viability |
| CO[C@@H](C)c1ncccc1-c1c2c3cc(ccc3n1C1CN(C3CC3)C1)-c1csc(n1)[C@@H](N1CC3(CCCN3C)C1)[C@H](NC(=O)[C@@H]1[C@@H](C)[C@H]1C(C)C)C(=O)N1CCC[C@H](N1)C(=O)OCC(C)(C)C2 (atropisomer, axis not shown) [Example A1158] | < 1000 | < 1000 | greater decrease in cell viability |
| CO[C@@H](C)c1ncccc1-c1c2c3cc(ccc3n1C1CN(C3CC3)C1)-c1csc(n1)[C@@H](N1CC3(CCCN3C)C1)[C@H](NC(=O)[C@@H]1[C@@H](C)[C@H]1c1cocn1)C(=O)N1CCC[C@H](N1)C(=O)OCC(C)(C)C2 (atropisomer, axis not shown) [Example A1159] | < 1000 | < 1000 | greater decrease in cell viability |
| CO[C@@H](C)c1ncccc1-c1c2c3cc(ccc3n1[C@H]1C[C@@H](C#N)C1)-c1csc(n1)[C@@H](N1CC3(CCN3C)C1)[C@H](NC(=O)[C@H]1[C@H](C)[C@@H]1C)C(=O)N1CCC[C@H](N1)C(=O)OCC(C)(C)C2 (atropisomer, axis not shown) [Example A1160] | < 1000 | < 1000 | greater decrease in cell viability |
| CO[C@@H](C)c1ncccc1-c1c2c3cc(ccc3n1[C@H]1C[C@@H](C#N)C1)-c1csc(n1)[C@@H](N1CC3(CCN3C)C1)[C@H](NC(=O)[C@@H]1[C@@H](C)[C@H]1c1ccncn1)C(=O)N1CCC[C@H](N1)C(=O)OCC(C)(C)C2 (atropisomer, axis not shown) [Example A1161] | < 1000 | < 1000 | greater decrease in cell viability |
| CO[C@@H](C)c1ncccc1-c1c2c3cc(ccc3n1[C@H]1C[C@H](C#N)C1)-c1csc(n1)[C@@H](N1CC3(CCN3C)C1)[C@H](NC(=O)[C@@H]1[C@@H](C)[C@H]1c1ccncn1)C(=O)N1CCC[C@H](N1)C(=O)OCC(C)(C)C2 (atropisomer, axis not shown) [Example A1162] | < 1000 | < 1000 | greater decrease in cell viability |
| CCn1c(-c2cccnc2[C@H](C)OC)c2c3cc(ccc31)-c1csc(n1)[C@@H](N1CC3(CCN3C)C1)[C@H](NC(=O)[C@@H]1[C@@H](C)[C@H]1c1ccncn1)C(=O)N1CCC[C@H](N1)C(=O)OCC(C)(C)C2 (atropisomer, axis not shown) [Example A1163] | < 1000 | < 1000 | greater decrease in cell viability |
| CO[C@@H](C)c1ncccc1-c1c2c3cc(ccc3n1CCOC(C)C)-c1csc(n1)[C@@H](N1CC3(CCCN3C)C1)[C@H](NC(=O)[C@@H]1[C@@H](C)[C@H]1c1ccncn1)C(=O)N1CCC[C@H](N1)C(=O)OCC(C)(C)C2 (atropisomer, axis not shown) [Example A1164] | < 1000 | < 1000 | greater decrease in cell viability |
| CO[C@@H](C)c1ncccc1-c1c2c3cc(ccc3n1[C@H]1C[C@@H](C#N)C1)-c1csc(n1)[C@@H](N1CC3(CCCN3C)C1)[C@H](NC(=O)[C@@H]1[C@@H](C)[C@H]1c1ccncn1)C(=O)N1CCC[C@H](N1)C(=O)OCC(C)(C)C2 (atropisomer, axis not shown) [Example A1165] | < 1000 | < 1000 | greater decrease in cell viability |
| CO[C@@H](C)c1ncccc1-c1c2c3cc(ccc3n1CC(F)(F)F)-c1csc(n1)[C@@H](N1CC3(CCCN3C)C1)[C@H](NC(=O)[C@@H]1[C@@H](C)[C@H]1c1ccncn1)C(=O)N1CCC[C@H](N1)C(=O)OCC(C)(C)C2 (atropisomer, axis not shown) [Example A1166] | < 1000 | < 1000 | greater decrease in cell viability |
| CCn1c(-c2cccnc2[C@H](C)OC)c2c3cc(ccc31)-c1csc(n1)[C@@H](N1CC3(CCCN3C)C1)[C@H](NC(=O)[C@@H]1[C@@H](C)[C@H]1c1ccncn1)C(=O)N1CCC[C@H](N1)C(=O)OCC(C)(C)C2 (atropisomer, axis not shown) [Example A1167] | < 1000 | < 1000 | greater decrease in cell viability |
| CO[C@@H](C)c1ncccc1-c1c2c3cc(ccc3n1[C@H]1C[C@@H](C#N)C1)-c1csc(n1)[C@@H](N1CC3(CCCN3)C1)[C@H](NC(=O)[C@H]1[C@H](C)[C@@H]1C)C(=O)N1CCC[C@H](N1)C(=O)OCC(C)(C)C2 (atropisomer, axis not shown) [Example A1168] | < 1000 | < 1000 | greater decrease in cell viability |
